Literature values as cited in patent US6153745A, “Relating to mutagenesis of nucleic acids” (Amersham Pharmacia Biotech UK Limited, priority 1995, dated 2000).
Where two headings read alike, the source gives them in different places.

Tested on: adenine and guanine
Conditions: cited from earlier work

In the case of `O=C1NC2=NOCCC2=CN1[C@H]1C[C@H](O)[C@@H](CO)O1` [P], the base pairing is given as “forms base pairs of equivalent stability with adenine and guanine” and the base pairing (listed as dP) is given as “pairs with adenine or guanine”.
